Assay results published in article PMC3885651.
No constants are given. Whether binding was seen depends on the method and setting. Some results given as binding are weak or reduced against the parent protein; the word gives no strength. Where a sequence is shown, tags or fusion partners need not be part of it.

The chains behind the UniProt entries cited, without tags or fusion partners.
UniProt Q8GY55: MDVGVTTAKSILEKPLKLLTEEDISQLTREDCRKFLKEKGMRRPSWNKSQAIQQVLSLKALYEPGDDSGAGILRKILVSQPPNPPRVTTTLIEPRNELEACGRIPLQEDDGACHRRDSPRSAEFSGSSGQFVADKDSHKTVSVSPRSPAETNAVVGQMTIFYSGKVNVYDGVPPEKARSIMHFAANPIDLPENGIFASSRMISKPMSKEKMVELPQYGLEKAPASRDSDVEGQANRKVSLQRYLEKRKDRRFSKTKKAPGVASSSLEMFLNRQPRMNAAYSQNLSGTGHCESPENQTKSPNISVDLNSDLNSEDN
UniProt Q9SV55: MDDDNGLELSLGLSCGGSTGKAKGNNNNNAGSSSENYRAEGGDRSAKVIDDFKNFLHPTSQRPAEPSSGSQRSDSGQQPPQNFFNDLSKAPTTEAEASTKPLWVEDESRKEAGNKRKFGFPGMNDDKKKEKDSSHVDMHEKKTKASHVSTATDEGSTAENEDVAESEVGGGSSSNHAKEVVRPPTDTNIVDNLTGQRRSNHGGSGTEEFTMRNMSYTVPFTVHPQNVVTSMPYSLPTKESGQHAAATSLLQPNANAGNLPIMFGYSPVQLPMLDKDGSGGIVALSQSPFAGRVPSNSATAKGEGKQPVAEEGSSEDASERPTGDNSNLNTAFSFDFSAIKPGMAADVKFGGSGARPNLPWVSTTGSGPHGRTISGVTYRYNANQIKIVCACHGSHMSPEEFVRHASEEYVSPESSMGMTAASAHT
UniProt Q7XA73: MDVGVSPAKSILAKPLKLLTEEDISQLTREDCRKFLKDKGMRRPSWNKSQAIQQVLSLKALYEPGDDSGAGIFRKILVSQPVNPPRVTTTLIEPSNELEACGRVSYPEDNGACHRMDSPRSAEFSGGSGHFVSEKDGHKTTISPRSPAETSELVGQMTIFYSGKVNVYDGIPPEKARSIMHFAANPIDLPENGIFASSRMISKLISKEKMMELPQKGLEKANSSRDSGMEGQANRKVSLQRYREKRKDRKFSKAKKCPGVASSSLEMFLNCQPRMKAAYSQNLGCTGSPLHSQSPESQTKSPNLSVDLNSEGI

Columns and labels:
Assay in all cases: two-hybrid; S. cerevisiae PJ69-4A co-transformed with pGADT7 and pGBKT7 fusions; growth on SD lacking Leu, Trp and His (-3) against control (-2); 2 days at 30°C; empty vectors as controls
[1] = biological target: PEAPOD2 (PPD2), yeast two-hybrid fusion (Arabidopsis thaliana) (UniProt Q8GY55)
[2] = biological target: NOVEL INTERACTOR OF JAZ (NINJA), yeast two-hybrid fusion (Arabidopsis thaliana) (UniProt Q9SV55)
[3] = biological target: PEAPOD1 (PPD1), yeast two-hybrid fusion (Arabidopsis thaliana) (UniProt Q7XA73)

Measured: binding

B1: TIFY8 (GAL4-AD fusion) (protein, UniProt Q84MB2 1-361)
chain: MMVNHNNGQRPTDIDSRLRQTEQDKLLFHDFLGSKNPTLASTSMADHRLPPDNKAAKAAMTPSTASASSAGGLGGLSSTSDLVERHSGGGNHLDGIQLFGPRSDVSGSIMSNRFSGNKRSNSDSHFTTQEHPETLHWSKLLRNGPGSFSMNVNPLANQPPRGGGQISHLLHQLSTSRFKDENVGPSVIAQTAADEGSRTGMKGPGILSSFTMPNSSKLESFAPSNTGNRKDLASSTKQMTIFYGGQAHVFDDVHPNKADVIMALAGSSGGSWSTGLSHKPKSKNNTSDGPYKLGQMYEGGSSKETPQMPPEFRARPSHQPTSSACHRIFTQPGREHQGSIISRGRDIRDPVHRSDPEKEAT
binds: all assays above
